This passage reports log2 fold change results from the supplement of paper PMC12819154, “High-throughput peptide-centric local stability assay extends protein–ligand identification to membrane proteins, tissues and bacteria” (Nature Structural & Molecular Biology, 2025).

Chains of the proteins cited; added tags and fusions are not shown. Lines headed by an entry give the natural chain unless they say otherwise; changes in a name come on top.
UniProt Q53T59: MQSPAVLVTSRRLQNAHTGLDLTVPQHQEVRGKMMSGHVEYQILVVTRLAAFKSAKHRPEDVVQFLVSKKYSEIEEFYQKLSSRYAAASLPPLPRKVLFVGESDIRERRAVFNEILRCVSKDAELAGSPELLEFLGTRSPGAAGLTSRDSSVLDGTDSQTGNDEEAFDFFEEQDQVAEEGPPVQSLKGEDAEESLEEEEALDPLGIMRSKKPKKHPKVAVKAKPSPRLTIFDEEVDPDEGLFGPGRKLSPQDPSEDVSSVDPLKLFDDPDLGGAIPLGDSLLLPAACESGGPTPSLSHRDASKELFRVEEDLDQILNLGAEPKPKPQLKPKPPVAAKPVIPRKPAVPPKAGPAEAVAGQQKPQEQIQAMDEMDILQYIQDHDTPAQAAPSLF
UniProt Q5EE01: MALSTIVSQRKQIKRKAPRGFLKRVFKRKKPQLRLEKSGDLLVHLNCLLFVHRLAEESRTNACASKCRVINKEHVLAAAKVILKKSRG
UniProt Q5JQF8: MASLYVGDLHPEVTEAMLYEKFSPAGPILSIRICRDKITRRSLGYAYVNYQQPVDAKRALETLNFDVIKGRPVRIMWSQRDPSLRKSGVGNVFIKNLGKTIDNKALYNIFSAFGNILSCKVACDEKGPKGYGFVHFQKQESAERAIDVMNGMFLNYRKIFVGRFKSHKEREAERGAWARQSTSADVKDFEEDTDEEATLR
UniProt Q58FG0, whole entry: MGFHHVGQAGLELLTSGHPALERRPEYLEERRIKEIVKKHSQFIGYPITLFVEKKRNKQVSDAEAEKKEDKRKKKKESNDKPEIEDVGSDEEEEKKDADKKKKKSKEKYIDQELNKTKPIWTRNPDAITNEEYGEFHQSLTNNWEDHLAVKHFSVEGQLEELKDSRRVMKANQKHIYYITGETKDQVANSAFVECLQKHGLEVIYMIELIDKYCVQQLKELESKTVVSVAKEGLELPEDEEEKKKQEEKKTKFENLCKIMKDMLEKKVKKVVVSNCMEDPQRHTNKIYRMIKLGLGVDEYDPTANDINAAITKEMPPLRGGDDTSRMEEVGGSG
UniProt Q53FZ2: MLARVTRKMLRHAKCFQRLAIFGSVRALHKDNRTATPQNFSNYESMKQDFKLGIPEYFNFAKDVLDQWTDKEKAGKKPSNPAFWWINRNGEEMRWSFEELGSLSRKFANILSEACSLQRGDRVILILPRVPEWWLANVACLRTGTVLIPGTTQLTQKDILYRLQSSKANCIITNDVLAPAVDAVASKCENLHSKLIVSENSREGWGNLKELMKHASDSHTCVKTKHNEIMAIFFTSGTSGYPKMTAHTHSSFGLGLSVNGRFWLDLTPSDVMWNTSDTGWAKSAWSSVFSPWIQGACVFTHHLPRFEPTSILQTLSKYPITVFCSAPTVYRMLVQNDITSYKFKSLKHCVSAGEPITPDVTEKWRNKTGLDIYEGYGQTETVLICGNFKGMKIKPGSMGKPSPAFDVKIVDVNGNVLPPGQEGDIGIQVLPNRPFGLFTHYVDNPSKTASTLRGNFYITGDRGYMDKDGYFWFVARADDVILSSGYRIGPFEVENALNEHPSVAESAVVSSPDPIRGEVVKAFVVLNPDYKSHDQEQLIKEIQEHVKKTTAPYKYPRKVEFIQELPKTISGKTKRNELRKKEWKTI
UniProt Q52LR7, whole entry: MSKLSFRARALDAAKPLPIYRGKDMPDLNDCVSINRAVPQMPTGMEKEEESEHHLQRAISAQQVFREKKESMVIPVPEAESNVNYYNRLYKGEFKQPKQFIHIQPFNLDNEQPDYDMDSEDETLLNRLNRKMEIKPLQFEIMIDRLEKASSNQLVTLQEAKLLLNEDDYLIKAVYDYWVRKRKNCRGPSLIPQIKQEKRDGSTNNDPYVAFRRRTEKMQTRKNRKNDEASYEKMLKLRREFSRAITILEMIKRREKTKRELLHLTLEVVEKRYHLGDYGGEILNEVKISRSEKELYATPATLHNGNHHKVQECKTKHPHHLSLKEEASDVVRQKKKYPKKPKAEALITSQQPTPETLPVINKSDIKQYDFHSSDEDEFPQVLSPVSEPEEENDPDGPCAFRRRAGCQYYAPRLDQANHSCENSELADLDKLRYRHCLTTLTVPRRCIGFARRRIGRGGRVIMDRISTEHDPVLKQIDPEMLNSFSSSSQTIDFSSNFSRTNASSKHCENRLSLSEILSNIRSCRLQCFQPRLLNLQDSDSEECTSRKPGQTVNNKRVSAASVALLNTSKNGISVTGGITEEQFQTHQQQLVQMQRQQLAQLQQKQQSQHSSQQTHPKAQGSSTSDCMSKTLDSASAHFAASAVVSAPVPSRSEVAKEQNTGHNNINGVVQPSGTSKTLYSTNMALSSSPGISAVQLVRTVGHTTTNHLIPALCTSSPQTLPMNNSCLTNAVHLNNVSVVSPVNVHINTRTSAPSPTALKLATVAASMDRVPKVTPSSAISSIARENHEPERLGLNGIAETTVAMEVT
UniProt Q53HC9: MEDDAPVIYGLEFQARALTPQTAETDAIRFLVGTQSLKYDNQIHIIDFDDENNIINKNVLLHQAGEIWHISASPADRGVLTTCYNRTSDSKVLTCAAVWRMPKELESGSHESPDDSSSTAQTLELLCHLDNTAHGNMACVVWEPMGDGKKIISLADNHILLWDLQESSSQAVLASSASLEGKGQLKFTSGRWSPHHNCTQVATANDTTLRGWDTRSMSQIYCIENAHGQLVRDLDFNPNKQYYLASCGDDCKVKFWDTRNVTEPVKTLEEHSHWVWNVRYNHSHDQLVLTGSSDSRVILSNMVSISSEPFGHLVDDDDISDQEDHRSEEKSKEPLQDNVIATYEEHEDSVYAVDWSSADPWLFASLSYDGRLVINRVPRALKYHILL
UniProt Q4G0F5, whole entry: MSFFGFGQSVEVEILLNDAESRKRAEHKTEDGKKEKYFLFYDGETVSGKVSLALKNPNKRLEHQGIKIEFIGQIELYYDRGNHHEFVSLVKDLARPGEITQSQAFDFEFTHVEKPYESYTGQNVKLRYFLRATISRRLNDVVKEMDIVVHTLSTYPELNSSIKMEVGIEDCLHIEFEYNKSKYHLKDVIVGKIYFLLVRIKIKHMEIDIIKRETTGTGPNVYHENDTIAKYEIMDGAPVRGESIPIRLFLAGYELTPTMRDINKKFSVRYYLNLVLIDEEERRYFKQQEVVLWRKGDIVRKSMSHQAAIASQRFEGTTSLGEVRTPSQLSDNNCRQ
UniProt Q5MIZ7: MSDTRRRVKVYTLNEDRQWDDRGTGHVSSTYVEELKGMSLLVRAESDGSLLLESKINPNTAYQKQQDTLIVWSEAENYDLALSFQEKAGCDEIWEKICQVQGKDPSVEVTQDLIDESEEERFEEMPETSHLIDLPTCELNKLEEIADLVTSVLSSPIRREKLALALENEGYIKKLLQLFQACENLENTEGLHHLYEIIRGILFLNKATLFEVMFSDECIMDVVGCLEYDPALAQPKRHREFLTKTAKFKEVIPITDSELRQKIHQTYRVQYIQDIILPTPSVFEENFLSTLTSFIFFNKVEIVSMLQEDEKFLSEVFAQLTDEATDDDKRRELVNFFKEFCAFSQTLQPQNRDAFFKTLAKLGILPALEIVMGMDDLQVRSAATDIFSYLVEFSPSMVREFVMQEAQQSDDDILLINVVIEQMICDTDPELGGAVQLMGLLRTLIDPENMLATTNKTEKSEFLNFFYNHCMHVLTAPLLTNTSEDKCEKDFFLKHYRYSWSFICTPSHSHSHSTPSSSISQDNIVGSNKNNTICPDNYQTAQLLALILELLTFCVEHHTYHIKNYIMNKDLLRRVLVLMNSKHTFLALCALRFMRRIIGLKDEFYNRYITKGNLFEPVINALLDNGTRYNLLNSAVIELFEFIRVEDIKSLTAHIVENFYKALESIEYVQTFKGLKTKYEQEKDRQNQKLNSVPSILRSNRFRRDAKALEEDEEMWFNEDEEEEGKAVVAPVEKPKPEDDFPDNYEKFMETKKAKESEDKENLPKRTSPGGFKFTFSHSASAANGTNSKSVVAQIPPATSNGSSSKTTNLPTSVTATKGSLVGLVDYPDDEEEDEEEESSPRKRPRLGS
UniProt Q5VWJ9: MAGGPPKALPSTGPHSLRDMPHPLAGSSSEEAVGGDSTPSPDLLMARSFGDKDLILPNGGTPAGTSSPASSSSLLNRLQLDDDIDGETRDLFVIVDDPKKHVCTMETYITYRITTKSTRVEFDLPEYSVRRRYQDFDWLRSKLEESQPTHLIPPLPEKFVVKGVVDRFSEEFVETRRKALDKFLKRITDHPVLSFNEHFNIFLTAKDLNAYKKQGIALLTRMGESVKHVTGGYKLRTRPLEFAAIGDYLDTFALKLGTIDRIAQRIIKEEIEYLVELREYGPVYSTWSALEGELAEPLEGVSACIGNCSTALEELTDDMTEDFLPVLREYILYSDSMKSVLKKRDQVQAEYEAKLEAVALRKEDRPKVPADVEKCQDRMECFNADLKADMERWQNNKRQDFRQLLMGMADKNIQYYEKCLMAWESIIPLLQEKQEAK

This is one part of the list. Small differences around the control level are noise.

Compound in the assay: CN[C@@H]1C[C@H]2O[C@@](C)([C@@H]1OC)n1c3ccccc3c3c4c(c5c6ccccc6n2c5c31)C(=O)NC4 [staurosporine]
Description: log2 fold change of tryptic peptide abundance, ligand vs vehicle (limited proteolysis) (log2 ratio); higher = more trypsin-susceptible (destabilized). The conditions noted are these: ligand concentration: 20 uM; sample: K562 cleared lysate; digestion: 4 min, 22 C (HT-PELSA RT4min, Orbitrap Astral).
With “HS1BP3 (peptide sequence: HRPEDVVQFLVSK, peptide start residue: 57) (UniProt Q53T59)”, the log2 fold change was -0.133.

Take “UniProt Q5EE01 (peptide sequence: SGDLLVHLNCLLFVHR, peptide start residue: 38)”: the log2 fold change is -0.0458.

Take “UniProt Q5JQF8 (peptide sequence: KSGVGNVFIK, peptide start residue: 95)”: the log2 fold change is -0.00219.

For the target “UniProt Q58FG0 (peptide sequence: HIYYITGETK, peptide start residue: 490)”, the log2 fold change was 0.134.

On to “ACSM3 (peptide sequence: HCVSAGEPITPDVTEK, peptide start residue: 348) (UniProt Q53FZ2)”, for which the log2 fold change was -0.361.

Turning to “EPC2 (peptide sequence: LQCFQPR, peptide start residue: 525) (UniProt Q52LR7)”, the log2 fold change was 0.159.

In the case of “UniProt Q5T6F0 (peptide sequence: GWLNHDETWR, peptide start residue: 399)”, the log2 fold change was found to be 0.242.

With “UniProt Q53HC9 (peptide sequence: VLTCAAVWR, peptide start residue: 92)”, the log2 fold change was -0.192.

In the case of “VPS26B (peptide sequence: IYFLLVR, peptide start residue: 193) (UniProt Q4G0F5)”, the log2 fold change is -0.292.

“UniProt Q5MIZ7 (peptide sequence: AKESEDKENLPK, peptide start residue: 754)”: the log2 fold change came to 0.202.

With “SNX30 (peptide sequence: STRVEFDLPEYSVR, peptide start residue: 117) (UniProt Q5VWJ9)”, the log2 fold change turned out to be 0.822.
